# US7968558B2, “Amidine derivatives of 2-heteroaryl-quinazolines and quinolines; potent analgesics and anti-inflammatory agents” (Rottapharm S.p.A., priority 2006, dated 2011)
# Some results were stated once for a whole list of compounds, not compound by compound.
# System: mechanical hyperalgesia associated with STZ-induced diabetes
# Test: STZ-induced diabetes mechanical hyperalgesia (neuropathic pain)
# Type: in vivo, rat
# Details: doses of 30 mg/kg i.p.
# Method: Streptozotocin (STZ)-induced diabetes in the rat has been increasingly used as a model of painful diabetic neuropathy to assess the efficacies of potential analgesic agents (C. Courteix, Pain 1993, 53, 81-8). The compounds of the invention were tested for efficacy in reducing mechanical hyperalgesia associated with STZ-induced diabetes in the rat, according to the experimental model as described by the literature. Diabetes was produced with the injection of a single dose (75 mg/Kg i.p.) of STZ. In the following four weeks after the induction of diabetes the clinical symptoms (weight, body and skin temperature, motility and hyperglycemia) progressively developed by the animals, are strictly monitored. […] The hyperalgesia induced by diabetes was evaluated using the Randall-Selitto method as above described, and quantitated using the analgesimeter. […] The compounds of the invention were administered i.p. (solution, Tween 80, 10% in saline) at different doses, and mechanical hyperalgesia was measured at the reported time, as maximum percent effect (MPE) which represents the difference (%) in pain threshold between the animals treated with the drug and the controls that received only the vehicle, compared with the weight borne by naïf non-diabetic controls. […]
structure (smiles),measurement,value
"CC(=N)Nc1ccc2nc(-c3ccc4c(c3)OCO4)ncc2c1 [Example 1, N-[2-(1,3-benzodioxol-5-yl)quinazolin-6-yl]acetamidine]",protection (MPE),higher than 100%
